± gives the standard deviation. This is a selection; strong and weak results do not stand in their true shares. The uncertainty is large for many entries.
system: MIWI (PIWIL1) piRISC loaded with L1MC piRNA (30 nt); test: pre-steady-state target cleavage rate (min^-1); MIWI and MILI are mouse PIWI proteins and EfPiwi is from a freshwater sponge; tags in brackets are library labels; higher = faster piRNA-guided slicing of the target; conditions: guide: L1MC piRNA 5'p-UAACUAAAUACUAUGCAAGCUGUAGGUCCU; auxiliary factor: none (no GTSF1)
Summary of the method: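 A transcribed, DNA-blocked target RNA library […] was incubated at 33 °C for 0–8 or 0–960 min with 1 nM active affinity-purified piRISC carrying one synthetic guide, in HEPES–potassium acetate buffer with or without 500 nM GTSF1 partner protein. Uncleaved targets were then sequenced and normalised to depth and to weakly complementary targets. Data from three trials were pooled, with k3 capped at 0.0001 min^-1, and a burst-and-steady-state fit yielded the pre-steady-state cleavage rate.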
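Also: 1 nM active piRISC with 0.1 nM target library at 33 °C single turnover.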

Row | Sequence | pre-steady-state target cleavage rate
1 | UCCUGGUACAGCUUGCAUAGUAUUAUCAAA [g7:g24:cont:t1A] | 0.00257 ± 0.0033
2 | UCGACCUACAGCAAGCAUAGUAUUUACAAA | 0.000635 ± 0.0075
3 | UCGACCUACAGCUUGCAUAGAUAUUAGUAA | 0.00072 ± 0.0075
4 | UCCUGGAUCACCUAGCAUAGUAUUUAGUUA | 0.00264 ± 0.0027
5 | AGGACCUACAGCUUGGUUAGUAUUUAGAAA | 0.00163 ± 0.0035
6 | AGGACCUACACGAUGCAUAGUAUUUUCAAA | 0.000228 ± 0.016
7 | AGGACCUACAGCUUGCAUAGUAAAAAGAAA | 0.000448 ± 0.01
8 | UCCACCUACACGUUGCAUAGUAUUUACAAA | 0.0011 ± 0.0055
9 | UCCACCUACAGCUUGCUAAGUAUUUUCAAA | 0.000195 ± 0.016
10 | UGGACCUACAGCUUGCAUAGUAAAAAGUAA | 0.00165 ± 0.0046
11 | UCCACCUACAGCUUGCAUUCUAUUUAGAAA | 0.000715 ± 0.0063
12 | UCCACCUACAGCAUGCAUAGUAUUUAGAAA | 0.00164 ± 0.0044
13 | UCCUGGAUCAGCAUGCAUAGUAUUUACAAA | 0.000478 ± 0.0078
14 | UCCACCUACAGCUUGCAUAGUUAUUAGAAA | 0.000939 ± 0.009
15 | UCGACCUACAGCUUCCAUAGUAUUUAGAUA | 0.00126 ± 0.0058
16 | UCCUGGAUGUCGUUCCAAAGUAUUUAGUUA | 0.000383 ± 0.012
17 | UCCUGGAUGUCGAACCAUAGUAUUAUGUUA | 0.000142 ± 0.045
18 | UGGACCUACAGCUACCAUAGUAUUUAGUAA | 0.00191 ± 0.0027
19 | UCCACCUACAGCUUCGUUAGUAUUUAGUAA | 0.000735 ± 0.0082
20 | UCCACCUACAGCUUCCAUAGUAAUUAGUUA | 0.00127 ± 0.006

Row | Sequence | pre-steady-state target cleavage rate
21 | UCGACCUACAGCAACCAUAGUAUUUAGAAA | 0.000266 ± 0.012
22 | AGGACCUACAGCUACGAUAGUAUUUAGAAA | 0.000247 ± 0.015
23 | UCCACCUACAGGAUGCAUAGUAUUUAGAAA | 0.000876 ± 0.0046
24 | UCCACCUACACGAUGCAUAGUAUUUACAAA | 0.000578 ± 0.012
25 | AGGACCUACAGCAACCAUAGUAUUUAGUAA | 0.000974 ± 0.0078
26 | UCCUGGAUGUCGAACGUAAGUAUUUAUGUUA | 0.000238 ± 0.029
27 | AGGACCUACACGAUGCAUAGUAUUUACAAA | 0.00107 ± 0.0074
28 | UCGACCUACAGCUUCGAUAGUAUUUAGAAA | 0.000873 ± 0.0072
29 | AGGACCUACAGCUUGCUAUGUAUUUACAAA | 0.00051 ± 0.01
30 | UCGACCUACAGCUUCCAUAGUUUUUAGUUA | 0.00125 ± 0.004
31 | UCCACCUACAGCUAGCAUAGUAUUUACAAA | 0.00113 ± 0.0053
32 | AGGACCUACAGCUUGCAUACAAUUUAGAAA | 0.00102 ± 0.0069
33 | UCCACCUAGUCCUUGCAUAGUAUUUACAAA | 0.00207 ± 0.0024
34 | UGGACCUACAGCUUGCGAUAGUAUUUAGUUA | 0.00148 ± 0.0036
35 | UCCACCUACAGCUUGCUAAGUAUUUAGUAA | 0.00132 ± 0.0047
36 | AGGACCUACAGCUUGCAUAGUAUAAUGAAA | 0.00256 ± 0.0041
37 | UCCUCCUACAGCUUGCUAGUAUUUAGUUA | 0.00227 ± 0.0029
38 | UCCUGGAUGUCGAACCAUAUGUAUUUAGUUA | 0.000268 ± 0.029
39 | AGGACCUACAGCUUCCAUAGUAUUUUGUUA | 0.00147 ± 0.0051

A second format for some results above.

| Row | Sequence | pre-steady-state target cleavage rate |
| --- | --- | --- |
| 1 | UCCUGGUACAGCUUGCAUAGUAUUAUCAAA [g7:g24:cont:t1A] | 0.00257 ± 0.0033 |
| 26 | UCCUGGAUGUCGAACGUAAGUAUUUAUGUUA | 0.000238 ± 0.029 |
